{"source": "patent US4492693A", "about": "“Benzothienylglycyl cephalosporin derivatives” (priority 1983, dated 1985)", "type_in_all_cases": "biochemical", "conditions_in_all_cases": "lower numbers mean greater stability", "key": {"[1]": {"test_system": "β-lactamase, organism 1313G", "experiment": "Stability to β-lactamase (Table V)", "description": "(§1) The compounds of the invention also have good stability to β-lactamases."}, "[2]": {"test_system": "β-lactamase, organism 1082E", "experiment": "Stability to β-lactamase (Table V)", "description": "as §1"}, "[3]": {"test_system": "β-lactamase, organism 265A", "experiment": "Stability to β-lactamase (Table V)", "description": "as §1"}, "[4]": {"test_system": "β-lactamase, organism PS185", "experiment": "Stability to β-lactamase (Table V)", "description": "as §1"}, "[5]": {"test_system": "β-lactamase, organism TEM", "description": "as §1"}}}
{"smiles": "CC1=C(C(=O)O)N2C(=O)[C@@H](NC(=O)[C@H](N)c3ccccc3)[C@H]2SC1", "note": "[Cephalexin]", "values": [{"measurement": "Stability to β-lactamase", "setting": "[1]", "value": 254}, {"measurement": "Stability to β-lactamase", "setting": "[2]", "value": 6}, {"measurement": "Stability to β-lactamase", "setting": "[3]", "value": 72}, {"measurement": "Stability to β-lactamase", "setting": "[4]", "value": 37}, {"measurement": "Stability to β-lactamase", "setting": "[5]", "value": 1}]}
